Patent publication US20190336544A1
These are yes or no findings as the source states them, for the method shown. Some binding calls cover weakened binding; strength is not graded here. For part of these data: Where a sequence is shown, tags or fusion partners need not be part of it.

Amino acid sequences for entries named in this document (tags omitted). Residues count along the entry.
UniProt P27548, residues 112-260: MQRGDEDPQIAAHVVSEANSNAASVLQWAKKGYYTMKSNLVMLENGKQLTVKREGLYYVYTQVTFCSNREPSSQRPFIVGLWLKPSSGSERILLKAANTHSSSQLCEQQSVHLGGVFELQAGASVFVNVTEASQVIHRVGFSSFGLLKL

Assays:
[1] = molecular target: T1, mCD40, coated on ELISA plates (mouse) (UniProt P27512); assay: ELISA; mCD40 coated
T1 sequence (looked up): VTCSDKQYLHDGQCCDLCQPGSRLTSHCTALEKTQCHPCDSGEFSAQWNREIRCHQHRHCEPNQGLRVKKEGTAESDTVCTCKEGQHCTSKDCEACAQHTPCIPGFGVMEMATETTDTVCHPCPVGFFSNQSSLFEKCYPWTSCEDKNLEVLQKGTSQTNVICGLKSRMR

[2] = molecular target: T2, CD47 on mouse CT26 cells (mouse) (UniProt Q61735); assay: flow cytometry on CT26 cells (FIG. 27)
T2 sequence (looked up): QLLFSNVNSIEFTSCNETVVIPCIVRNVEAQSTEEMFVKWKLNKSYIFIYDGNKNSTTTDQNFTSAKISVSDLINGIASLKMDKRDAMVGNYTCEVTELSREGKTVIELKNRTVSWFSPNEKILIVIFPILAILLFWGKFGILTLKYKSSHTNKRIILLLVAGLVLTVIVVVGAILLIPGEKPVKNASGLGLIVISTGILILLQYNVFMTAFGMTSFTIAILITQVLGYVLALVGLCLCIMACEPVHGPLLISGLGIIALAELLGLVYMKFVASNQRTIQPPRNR

[3] = molecular target: T2, CD47 on mouse CT26 cells (mouse); assay: flow cytometry on CT26 cells, 10 µL of 10x concentrated supernatant
[4] = molecular target: T3, mouseCD47, coated on ELISA plates (mouse) (UniProt Q61735); assay: ELISA; mCD47 coated
T3 sequence (looked up): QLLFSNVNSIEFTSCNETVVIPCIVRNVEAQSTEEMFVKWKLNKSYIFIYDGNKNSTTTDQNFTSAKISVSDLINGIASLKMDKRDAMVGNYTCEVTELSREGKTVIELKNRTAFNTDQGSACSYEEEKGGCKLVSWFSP

[5] = molecular target: T2, CD47 on mouse CT26 cells (mouse); assay: competition flow cytometry on CT26 cells; competitor of the secreted SIRPalpha
[6] = molecular target: T2, CD47 on mouse CT26 cells (mouse); assay: competition flow cytometry on CT26 cells (FIG. 29)

With “secreted mCD40L2 (112-260)-V5-HIS (SYN3367) (from UniProt P27548 112-260) (ligand)” the binding [1] was “binds”.

B1: secreted WT mSIRPα (FLAG-mSIRPa(32-373)-V5-HIS, SYN2996) (receptor, mouse, UniProt P97797 32-373, looked up, not shown: small tags and cut ends)
chain: KELKVTQPEKSVSVAAGDSTVLNCTLTSLLPVGPIRWYRGVGPSRLLIYSFAGEYVPRIRNVSDTTKRNNMDFSIRISNVTPADAGIYYCVKFQKGSSEPDTEIQSGGGTEVYVLAKPSPPEVSGPADRGIPDQKVNFTCKSHGFSPRNITLKWFKDGQELHPLETTVNPSGKNVSYNISSTVRVVLNSMDVNSKVICEVAHITLDRSPLRGIANLSNFIRVSPTVKVTQQSPTSMNQVNLTCRAERFYPEDLQLIWLENGNVSRNDTPKNLTKNTDGTYNYTSLFLVNSSAHREDVVFTCQVKHDQQPAITRNHTVLGFAHSSDQGSMQTFPDNNATHNWN
For B1, the binding [2] was “binds”, the binding [3] was “binds” and the binding [4] was “binds”.

B2: recombinant SIRPα (Rndsystems) (receptor, mouse, UniProt P97797 32-373, looked up)
chain: B1 chain
B2 was tested, and the binding [5] was “binds” and the binding [6] was “binds”.
